Laboratory results as given in PubChem BioAssay AID1487 (National Center for Advancing Translational Sciences (NCATS), 2009).
This is one part of the list. Shown are side measurements of this screen, not its main read-out; they come without a call. The list favours compounds with an active or inconclusive main result. Words in brackets tell the shape of the fitted curve; partial curves, single points and poor fits give uncertain potencies.

Test: qHTS Assay for Modulators of Lamin A Splicing
Settings: HeLa LMNA splicing GFP/RFP minigene ratio, 48 h
Text: NCGC Assay Overview: Hutchinson-Gilford Progeria Syndrome (HGPS) is a pediatric premature aging disease caused by a spontaneous mutation in the lamin A/C (LMNA) gene. The mutation activates a cryptic splice site in the LMNA pre-mRNA which results in production of a pre-lamin A protein that cannot be processed properly. The mutant protein accumulates in the nucleus and negatively affects numerous cellular functions. Correction of the splicing defect in HGPS patient cells using a targeted oligonucleotide (exo11) leads to reversal of the cellular disease phenotypes. To identify small molecule modulators of aberrant LMNA splicing, a homogenous assay was constructed in HeLa cells that used a GFP containing minigene to report on correction of aberrant splicing in lamin A and a RFP (DsRed2) to report on cell viability, uniformity and nonspecific effects on the assay signal. This assay was adapted to laser-scanning microplate cytometry (Acumen, TTP Labtech) where miniaturization of the assay to a 1,536-well plate format was possible. References: Bowen, W. P.; Wylie, P. G. Application of Laser-Scanning Fluorescence Microplate Cytometry in High Content Screening. Assay Drug Dev Technol 2006;4:209-221. Scaffidi P, Misteli T. Reversal of the cellular phenotype in the premature aging disease Hutchinson-Gilford progeria syndrome. Nat.
NCGC Assay Protocol Summary: Reagents/Controls: Stable clones expressing DsRed2 and lamin A-EGFP were generated by Cell and Molecular Technologies in S3 HeLa cells. HeLa cells were prepared for the assay when they were 70-90% confluent. The cells were counted and resuspended in Opti-MEM I (no phenol red; Gibco), 2% FBS, 1% penicillin/ streptomycin (Gibco) at concentration of 120 cells/uL concentration. The suspension was passed through a Falcon basket filter with pore size 40um (Beckton Dickson). Control titrations: column […] 1536-well plate contained a sixteen point titration (1:2 dilutions) in duplicate of ancitabine (Sigma: A8598) beginning at 40 uM final concentration. Column 2 contained a sixteen point titration (1:2 dilutions) of cycloheximide beginning at 1.4 mM final concentration. Column 3 contained ancitabine at 40 uM and column 4 contained was the vehicle control (0.5% DMSO final concentration). Assay Steps: 5 uL of HeLa cells were plated in Aurora LoBase black clear bottom (cyclic-olefin polymer) 1536-well plates at a final density of 600 cells/well. Controls and library compounds were added with a 1536-well pin array using the Kalypsys pin-tool. The plates were then incubated for 48 hrs in a cell-culture incubator (37 °C; 5% CO2, 98% humidity). Following incubation the plates were read on the Acumen Explorer using the 488 nm laser. Data was collected on objects between 10 and 100 um in size. Cell objects were defined by a 15 um width x 10 um depth filter. The ratio of the total object intensity in PMT1 (500-530 nm emission; GFP) over PMT3 (575-640 nm emission; RFP) was calculated for analysis. Keywords: NIH Roadmap, MLSCN, MLI, MLSMR, qHTS, NCGC, lamin A, Progeria, RNA splicing.

[1] = measured here: RFP viability control channel
[2] = measured here: GFP splicing reporter channel

Row | Compound | AC50 [1] | AC50 [2]
1 | COc1cc(/C=N/NC(=O)C2CCN(CC(O)COCc3ccccc3)CC2)ccc1O (stereo not drawn) | 0.00447 µM [rising, full curve, poor fit] | 
2 | Cc1cc(C)n(C(=O)CNc2ccc(C)c(C)c2)n1 | 8.91 µM [rising, partial curve, poor fit] | 
3 | O=C(COc1ncnc2ccccc12)NCCc1ccc(F)cc1 | 0.0355 µM [falling, full curve, poor fit] | 
4 | CC(=O)OCC(=O)[C@@]1(O)CC[C@@H]2[C@H]3CCC4=CC(=O)C=C[C@]4(C)[C@]3(F)[C@@H](O)C[C@@]21C | 0.0316 µM [falling, full curve, poor fit] | 0.000891 µM [rising, full curve, poor fit]
5 | Cc1cc(OI)c(C(C)C)cc1-c1cc(C(C)C)c(OI)cc1C | 0.0178 µM [falling, full curve, poor fit] | 0.631 µM [falling, full curve]
6 | C=C1C(=O)[C@@]23[C@H](O)C[C@@H]4C(C)(C)CC[C@H](O)[C@@]4(C)[C@@H]2CC[C@@H]1[C@H]3O | 35.5 µM [falling, single point] | 
7 | CCC(=O)/C(=C(/O)c1ccccc1)c1nc2ccccc2[nH]1 | 3.55 µM [rising, partial curve] | 0.501 µM [rising, full curve, poor fit]
8 | CN(C)/C=C/C(=O)c1ncc(C(F)(F)F)cc1Cl |  | 35.5 µM [falling, single point]
9 | CC(=O)N1CCC(N2CCN(Cc3ccc(C)cc3)C(CCO)C2)CC1 (stereo not drawn) |  | 2.51 µM [rising, partial curve]
10 | O=C1c2cccc3cccc(c23)C(=O)N1CCN1CCN(CC(O)COCc2ccc(Cl)cc2)CC1 (stereo not drawn) | 31.6 µM [rising, single point] | 31.6 µM [rising, single point]
11 | CN(C)C(=O)c1ccc(-c2nc(N(C)Cc3ccco3)c3ccccc3n2)cc1 | 28.2 µM [rising, single point] | 5.01 µM [rising, full curve]
12 | CCOC(=O)C1(Cc2ccccc2)CCCN(Cc2cccc(C(C)=O)c2)C1 (stereo not drawn) | 14.1 µM [falling, partial curve] | 17.8 µM [falling, partial curve, poor fit]
13 | Cn1c(=O)c(NCCc2ccccc2)c2c3c(cccc31)C(=O)c1ccccc1-2 | 11.2 µM [falling, partial curve] | 15.8 µM [falling, partial curve]
14 | Cc1cccc(CNc2cc(-c3ccccc3CN(C)C)ncn2)c1 | 31.6 µM [rising, single point] | 
15 | CC(=O)c1ccc(Nc2cc(C)nc3ccc(C)cc23)cc1 | 25.1 µM [falling, single point] | 14.1 µM [falling, single point]
16 | Cc1ccc(S(=O)(=O)Nc2ccccc2/C=N/c2nc3ccccc3n2C(C)C)cc1 | 1.12 µM [rising, partial curve] | 
17 | N=C(N=C(N)N)N1CCOCC1 | 0.0562 µM [falling, full curve] | 0.0355 µM [falling, full curve, poor fit]

Given comma-delimited: entries from further up.
Row,Compound,AC50 [1],AC50 [2]
13,Cn1c(=O)c(NCCc2ccccc2)c2c3c(cccc31)C(=O)c1ccccc1-2,"11.2 µM [falling, partial curve]","15.8 µM [falling, partial curve]"
14,Cc1cccc(CNc2cc(-c3ccccc3CN(C)C)ncn2)c1,"31.6 µM [rising, single point]",

Additional entries

Row | Compound | AC50 [1] | AC50 [2]
18 | COc1cccc(C(=O)N/N=C/C(Br)=C/c2ccccc2)c1 | 17.8 µM [falling, partial curve, poor fit] | 
19 | COc1ccc(-c2cc(C(=O)N3CCN(c4ccccc4OC)CC3)no2)cc1OC | 12.6 µM [falling, partial curve, poor fit] | 0.1 µM [falling, partial curve]
20 | CCN(CC)Cc1c(O)ccc2c([N+](=O)[O-])c(C)n(-c3ccc(OC)cc3)c12 | 20 µM [rising, partial curve, poor fit] | 
21 | COc1ccc(C2(C(=O)Nc3ccc(OC)cc3OC)CCCC2)cc1 |  | 2.24 µM [falling, partial curve]
22 | Cc1ccccc1OCC(=O)Nc1ccc(N2CCN(C(=O)C(C)C)CC2)c(Cl)c1 | 35.5 µM [falling, single point] | 
23 | CCSC1(SCC)N=C(N)C2(C#N)C(c3ccc(OC)c(OC)c3OC)C12C#N (stereo not drawn) | 20 µM [rising, single point] | 
24 | COCc1cc(N2CCN(c3ccccc3F)CC2)nc(-c2ccccc2)n1 | 35.5 µM [rising, single point] | 
25 | S=C(NCc1ccc(Cl)cc1)NC1CCCCC1 | 15.8 µM [rising, single point] | 
26 | COc1ccc(Oc2ncc3nc(CCc4ccccc4)c(=O)n(C[C@H]4CCCO4)c3n2)cc1 |  | 11.2 µM [falling, partial curve]
27 | CN(C)C=Nc1ncc2c3ccccc3n(Cc3ccccc3)c2c1C#N | 1.12 µM [falling, single point] | 1 µM [falling, single point]
28 | Cc1cc(C(=O)N/N=C/c2cc(Br)ccc2OC(=O)c2ccccc2Cl)n[nH]1 | 5.01 µM [falling, partial curve] | 15.8 µM [falling, partial curve, poor fit]
29 | O=[N+]([O-])c1ccc(Cl)c(S(=O)(=O)/N=C(/c2ccccc2)N2CCOCC2)c1 | 6.31 µM [falling, partial curve] | 8.91 µM [falling, partial curve]
30 | CCCCn1cc(S(=O)(=O)c2cccc(C)c2)c(=O)c2cc(F)c(N3CCOCC3)cc21 | 35.5 µM [rising, single point] | 
31 | COc1ccc(Cc2nnc(Nc3ccc4c(c3)OCCO4)[nH]c2=O)cc1 |  | 0.794 µM [rising, full curve, poor fit]
32 | CCOC(=O)N/N=C/c1cc(OC)c(O)c(OC)c1 | 0.126 µM [rising, full curve] | 0.141 µM [rising, full curve, poor fit]
33 | CCc1ccc(Nc2cnn(-c3nc4ccccc4s3)c(=O)c2Cl)cc1 | 25.1 µM [rising, single point] | 
34 | Cc1ccc(NC(=O)CCn2nnc3ccccc32)cc1 | 25.1 µM [falling, partial curve, poor fit] | 
